# In US4056540A, “4-Phenyl-1,3-benzodioxans” (Bristol-Myers Company, priority 1975, dated 1977):
# Where a name gives a salt, the structure may show the parent alone. At least one structure is not confirmed: it was looked up by name or label, or the drawing left a doubt.
# What was measured:
# [1] = tested on: tonic convulsions induced by maximal electroshock; test: Maximal Electroshock Test, mouse; assay type: in vivo; conditions: result in words; species not given
# Procedure: (§1) ^1 Test compounds including reference agents were administered orally
# (§2) either as water solutions or as fine suspensions in Tween by gastric
# (§3) intubation 60 min prior to the test. There were at least 3 animals per
# ^2 Maximal Electroshock Test - Animals were subjected to an 80mA shoc
# of 0.5 sec duration by a means of corneal electrodes using the specially
# designed apparatus manufactured by Wahlquist Instrument Co. Prevention of
# tonic extension by hind limbs was used as a criterion for drug effect.
# [2] = tested on: audiogenic seizures; test: Audiogenic Seizures, mouse; assay type: in vivo; conditions: result in words
# Procedure: as §1, §2, §3
# ^3 Audiogenic Seizures - Mice, which were genetically bred for the
# susceptability to sound induced seizures (O'Grady Farms) were placed into
# the sound attenuated box and exposed to a 120 sec sound stimulus of 85 db
# and 10,000 c/sec frequincy. Prevention of tonic extension of hind limbs
# was used as a criterion for drug effect.
structure (smiles),measurement,setting,value
"CC(C)NC[C@@H]1Oc2ccc(Cl)cc2[C@H](c2ccccc2)O1 (relative stereo) [BL-3396, cis-6-Chloro-4-phenyl-2-(2-propylaminomethyl)-1,3-benzodioxan hydrochloride]",blocking of tonic convulsions induced by maximal electroshock,[1],effective blocking agents of tonic convulsions
same,blocking of tonic convulsions induced by audiogenic seizures,[2],effective blocking agents of tonic convulsions
